For at least one entry, the source does not settle the construct or the ends of the probe. For some of these results: Negatives hold for the conditions tested. Bounds are passed on as bounds.

For series [1], the target named is Bovine serum albumin (BSA) (Bos taurus) (UniProt P02769). Briefly: EMSA. As to conditions: 2'-F at all C and U; 37 C 1 h.
The test system of series [2] is Factor IXa. Briefly: EMSA. As to conditions: 2'-F at all C and U; 37 C 1 h. (In EMSA bound probe runs differently from free probe, usually more slowly.)
Series [3] concerns Thrombin. Briefly: EMSA. As to conditions: 2'-F at all C and U; 5 pmol RNA + 25 pmol protein, 37 C 1 h.
Series [4] deals with Factor Xa. Briefly: EMSA. To be noted: 2'-F at all C and U; 37 C 1 h.
The subject of series [5] is Thrombin (in pooled human plasma) (Homo sapiens). Briefly: inhibition of the protein. As to conditions: 2'-F at all C and U, protein in an extract, protein details: pooled human plasma, George King Bio-Medical.
The mark [6] stands for this setting: aPTT clotting time in pooled human plasma, range given for all modified two-aptamer origami, dose not given here.

As to “GGAAAUGAUGCCGAGUUGACGCUUCGGCGUCAGCUCGCCCUGUGGCCUAGUUCGCUAGGUCACAGACAUCUUGGCGUUCGCGCCAGGAUGUCUCGCCCAAUUCCGUAGGGCGAGGGUAGCCAAAUCCAGAGGCUAGCAUUAUUUCCGAUCUAGGAUCGCGUUGAGAACUGGAUACUCAACAGCGGUAAACGGAAAACCGCUCAGCCGAAGUGUCUUGCGGGAACAAAGCUGAAGUACUUACCCGCAAGGCACUUUGGCUGGCCACGCGUCGUAUUCGUACGGCGCGUGCUAGACUGGCUGGCGGCGGUCGAUCACACAGUUCAAACGUAAUAAGCCAAUGUACGAGGCAGACGACUCGCCGCCAGCUAGUUUAGGAUUCUAGAUC [3HF-RNA-2NN1]”, the binding result in series [1] was “no binding”; in series [2] it was “no binding”; in series [3], “binds”; in series [4], “no binding”.

Turning to “GGAAAUGAUGCCGAGUUGACGCUUCGGCGUCAGCUCGCCCUGUGGCCUAGUUCGCUAGGUCACAGCCGACCAUUGCGUUUCGACGCAGUGGUCACAUCUUGGCGUUCGCGCCAGGAUGUCUCGCCCAAUUCCGUAGGGCGAGGGGACCCAAAUCCCUAGGGUCGGUAGCCAAAUCCAGAGGCUAGCAUUAUUUCCGAUCUAGGAUCGCGUUGAGAACUGGAUACUCAACCGUGGCAUAAAGGGAUAAUGCCAAGCGGUAAACGGAAAACCGCUCAGCCGAAGUGUCUUGCGGGAACAAAGCUGAAGUACUUACCCGCAAGGCACUUUGGCUGCGUGGCGUUACAGUUCGCUGUGACGCCAGCCACGCGUCGUAUUCGUACGGCGCGUGCUAGACUGGCUGGCGGCGGUCGAUCACACAGUUCAAACGUAAUAAGCCAAUGUACGAGGCAGACGACUCGCCGCCAGCUAGUUUAGGAUUCUAGAUC [4HF-RNA-2NN1]”, the binding result is “no binding” in series [1], “no binding” in series [2], “binds” in series [3] and “no binding” in series [4].

As to “GGGAACAAAGCUGAAGUACUUACCCACCUUACCACUCCACCUCACUCACCUAUUACGGCGGUCGAUCACACAGUUCAAACGUAAUAAGCCAAUGUACGAGGCAGACGACUCGCC [Fss12]”, the “functional effect of the aptamer” value in series [5] (aPTT, 500 nM, higher than free aptamers, lower than 2HF-RNA-2NN1) was “active”.

Consider “GGGAGAUCGAGCGACUUCCGACGGGAACAAAGCUGAAGUACUUACCCGUCGGGAGUCGGGCUAGUCAUCUUCGGAUGAUUAGCCGCUGGUGAAGCCUCCACGCCAGCCUCGGUCUCCCGCAGUAGGAUCGGACUGAAGGAGGCACGGUCCCAGCCGAAGUGUCUGGCGGUCGAUCACACAGUUCAAACGUAAUAAGCCAAUGUACGAGGCAGACGACUCGCCAGGCACUUUGGCUGCUAGACUGGCUGGCUUCGGCCAGCUAGUUUAGGAUUCUAUUGC [2HF-RNA-1N2N]”, for which the “functional effect of the aptamer” value in series [5] (setting [6]) is given as “active”.

In series [5] (aPTT clotting time at 400 nM, coagulometer maximum), “GGGAGAUCGAGCGACUUCCGACUCUGGCGGUCGAUCACACAGUUCAAACGUAAUAAGCCAAUGUACGAGGCAGACGACUCGCCAGAGUCGGGAGUCGGGCUAGUCAUCAGGCACGGGAACAAAGCUGAAGUACUUACCCGUGCCUGAUGAUUAGCCGCUGGUGAAGCCUCCACGCCAGCCUCGGUCUCCCGCAGUAGGAUCGGACUGAAGGAGGCACGGUCCCAGCCGAAGUGUCUUGCGGGAACAAAGCUGAAGUACUUACCCGCAAGGCACUUUGGCUGCUAGACUGGCUGGCGGCGGUCGAUCACACAGUUCAAACGUAAUAAGCCAAUGUACGAGGCAGACGACUCGCCGCCAGCUAGUUUAGGAUUCUAUUGC [2HF-RNA-2211]” registered a functional effect of the aptamer greater than 999 s. The binding result is given as “no binding” in series [1], “binds” in series [3] and “no binding” in series [4].

Consider “GGGAGAUCGAGCGACUUCCGACUUCGGUCGGGAGUCGGGCUAGUCAUCGGGAACAAAGCUGAAGUACUUACCCGAUGAUUAGCCGCUGGUGAAGCCUCCACGCCAGCCUCGGUCUCCCGCAGUAGGAUCGGACUGAAGGAGGCACGGUCCCAGCCGAAGUGUCUGGCGGUCGAUCACACAGUUCAAACGUAAUAAGCCAAUGUACGAGGCAGACGACUCGCCAGGCACUUUGGCUGCUAGACUGGCUGGCUUCGGCCAGCUAGUUUAGGAUUCUAUUGC [2HF-RNA-12NN]”, for which, in series [5] (setting [6]), the “functional effect of the aptamer” value is recorded as “active”.

Consider “GGGAGAUCGAGCGACUUCCGACUUCGGUCGGGAGUCGGGCUAGUCAUCUUCGGAUGAUUAGCCGCUGGUGAAGCCUCCACGCCAGCCUCGGUCUCCCGCAGUAGGAUCGGACUGAAGGAGGCACGGUCCCAGCCGAAGUGUCUUGCGGGAACAAAGCUGAAGUACUUACCCGCAAGGCACUUUGGCUGCUAGACUGGCUGGCGGCGGUCGAUCACACAGUUCAAACGUAAUAAGCCAAUGUACGAGGCAGACGACUCGCCGCCAGCUAGUUUAGGAUUCUAUUGC [2HF-RNA-2NN1]”, for which the “functional effect of the aptamer” value in series [5] (aPTT clotting time in pooled human plasma, range for all modified two-aptamer origami, about 80% reversed by DNA antidote, dose not given here) is listed as “active”.
